Measurements reported in PubChem BioAssay AID1259424 (University of Nebraska Medical Center, 2018).
The whole screen tested about 14,000 reagents; below is a part drawn at random. 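Higher correlation or smaller distance means closer resemblance to KSR1 loss; control wells, including KSR1 knockdowns, recur on many plates.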 Further read-outs or replicates are left out here. Not stated in the record: the time to read-out.

Aim: 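Find knockdowns that reproduce the expression shifts seen after KSR1 loss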 (primary screen)
Cells: human HCT116 colon cancer cells
Reagents: siRNA pool against human genes, 50 nM
Read-out: 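Six signature mRNAs by branched-DNA multiplex assay, scaled to two housekeeping genes and non-targeting median, log2; matched to mean KSR1 knockdown profile by Pearson correlation and euclidean distance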
Reading the numbers: mean correlation with KSR1 profile: higher = expression change more like KSR1 knockdown

{"gene": "LRRC17", "mean correlation with KSR1 profile": -0.322}
{"gene": "MXD1", "mean correlation with KSR1 profile": 0.265}
{"gene": "AP4B1", "mean correlation with KSR1 profile": 0.659}
{"gene": "PNKD", "mean correlation with KSR1 profile": -0.371}
{"gene": "LGMN", "mean correlation with KSR1 profile": 0.2}
{"gene": "POLE", "mean correlation with KSR1 profile": 0.73}
{"gene": "EIF3K", "mean correlation with KSR1 profile": -0.812}
{"gene": "CABLES2", "mean correlation with KSR1 profile": 0.507}
{"gene": "CPVL", "mean correlation with KSR1 profile": -0.311}
{"gene": "CLN8", "mean correlation with KSR1 profile": -0.361}
{"gene": "NEK3", "mean correlation with KSR1 profile": 0.878}
{"gene": "TEX35", "mean correlation with KSR1 profile": 0.168}
{"gene": "CNP", "mean correlation with KSR1 profile": -0.282}
{"gene": "C22orf46P", "mean correlation with KSR1 profile": 0.406}
{"gene": "KCNIP2", "mean correlation with KSR1 profile": 0.282}
{"gene": "UFL1", "mean correlation with KSR1 profile": 0.489}
{"gene": "FGF11", "mean correlation with KSR1 profile": -0.261}
{"gene": "NR1I2", "mean correlation with KSR1 profile": -0.126}
{"gene": "RAB4B", "mean correlation with KSR1 profile": 0.391}
{"gene": "SVEP1", "mean correlation with KSR1 profile": 0.758}
{"gene": "SLC29A2", "mean correlation with KSR1 profile": -0.326}
{"gene": "NT5M", "mean correlation with KSR1 profile": -0.379}
{"gene": "RERGL", "mean correlation with KSR1 profile": 0.12}
{"gene": "PUM2", "mean correlation with KSR1 profile": -0.232}
{"gene": "CSGALNACT1", "mean correlation with KSR1 profile": -0.165}
{"gene": "HSD17B12", "mean correlation with KSR1 profile": 0.00764}
{"gene": "PEPD", "mean correlation with KSR1 profile": -0.403}
{"gene": "OXER1", "mean correlation with KSR1 profile": 0.699}
